Experimental findings from paper PMC7819943, “Rice protein-binding microarrays: a tool to detect cis-acting elements near promoter regions in rice” are described below.

Chains of the proteins cited; added tags and fusions are not shown.
UniProt Q0JBA9, entry or part of it: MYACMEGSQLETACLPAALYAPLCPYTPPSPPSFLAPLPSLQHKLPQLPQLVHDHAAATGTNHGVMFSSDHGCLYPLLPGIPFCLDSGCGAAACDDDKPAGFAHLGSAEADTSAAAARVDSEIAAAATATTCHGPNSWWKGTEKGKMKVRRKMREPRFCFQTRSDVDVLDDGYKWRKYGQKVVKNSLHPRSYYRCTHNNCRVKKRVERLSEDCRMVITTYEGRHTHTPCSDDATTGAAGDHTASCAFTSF

The list shows a part of the results.

For the assay, the target named is OsWRKY34 (Oryza sativa, UniProt Q0JBA9 1-250). As to the kind of experiment: protein-binding microarray (RPBM); PBS, 2% BSA, 51.3 ng/ul salmon testes DNA, 50 uM zinc acetate, 200 nM TF, 25 C, 1 h; high values mean tight binding. The conditions noted are these: protein: recombinant; tags: N-terminal polyhistidine and DsRed monomer fusion (pET32a); label: CyDye5-dUTP incorporated in the synthesized complementary strand; 3' TTTTT single-stranded linker to array surface; dsDNA, one strand shown. The method in brief: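 Per-feature fluorescence intensity (arbitrary units), read on an Axon 4000B scanner, is the binding signal. Transcription factors carrying an N-terminal polyhistidine tag and DsRed fusion were expressed in E. coli BL21-CodonPlus and purified on Ni–NTA. A custom Agilent array, made double-stranded by primer extension with Cy5-dUTP and blocked with 2% BSA, was incubated with 200 nM protein in PBS, 2% BSA, salmon testes DNA and 50 µM zinc acetate at 25 °C for 1 h and then washed.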
For the sequence “AACTTTCGATGTGACACCCAAAAATTTACTTTTCCCCAACCGGAGTCACCTAGTGCAG”, the binding signal is 8050 fluorescence intensity (a.u.).
“CCGTATCCAATTTCGACGTCCATCTTACCTTACGTCCACCCGGAGTCACCTAGTGCAG”: the binding signal is 12800 fluorescence intensity (a.u.).
Then “CTCCAACCTAACCCCTGCCTGCCTGCATCAACCATATATGCGGAGTCACCTAGTGCAG”, with 8720 fluorescence intensity (a.u.); and “TCTCGGTTAGTTCGGTTCGATCTTTTTCTGCCCACCCTTACGGAGTCACCTAGTGCAG”, with 8560 fluorescence intensity (a.u.); and “TTTGGCCGAACTCTCTCCGATTTGGCGGATCTTCTATTTTCGGAGTCACCTAGTGCAG”, with 10200 fluorescence intensity (a.u.).
For “GTGGGGAGGTGGGGAGGAGATAGAGGCGGGATTCAAAAATCGGAGTCACCTAGTGCAG”, the binding signal is 12200 fluorescence intensity (a.u.).
The figure for “TAGACTCTATACTCTACTTCTAATATTCCTTATTTTTAATCGGAGTCACCTAGTGCAG” is 8220 fluorescence intensity (a.u.); for “CCGTGTTCTTGCTGCTGCTGCTGTTCTTCGTGAGCCTCCTCGGAGTCACCTAGTGCAG” it is 8810 fluorescence intensity (a.u.).
Then “GCTTGGTCGGGCTGCATGGCAACCAACTATTCCACCTAACCGGAGTCACCTAGTGCAG”, with 8320 fluorescence intensity (a.u.); and “TATCCATCCGAATCTGATCTGTTTTCATCCCTCTAGACTTCGGAGTCACCTAGTGCAG”, with 9110 fluorescence intensity (a.u.).
The figure for “CCGCGTACCGCCTCATCTTCTCAACTCGCACCACTCGTTCCGGAGTCACCTAGTGCAG” is 11300 fluorescence intensity (a.u.); for “ATGACCCTATCCACCCGCATGTGCTTCTGCTTCGTAGTTACGGAGTCACCTAGTGCAG” it is 15800 fluorescence intensity (a.u.); for “AGTATGCCTTATCAACTCTTAAGCACACTTATCATTTTATCGGAGTCACCTAGTGCAG” it is 10500 fluorescence intensity (a.u.).
As for “TTGCACTGCAGCTCACGCGTCGCTTTTGACCATCCCCGCCCGGAGTCACCTAGTGCAG”, the binding signal was 8280 fluorescence intensity (a.u.).
The figure for “ATCGTGCAACCACTACTTAACCACCACACCAACTTCATCACGGAGTCACCTAGTGCAG” is 8710 fluorescence intensity (a.u.); for “GGCCCAAGGAGGAAGGGGAGTTTTTATTTTGTTTTCTTTTCGGAGTCACCTAGTGCAG” it is 12000 fluorescence intensity (a.u.).
The figure for “CTCTCTCTCCATCCATGGCCGATCGTCGACGCCGTCGGTCCGGAGTCACCTAGTGCAG” is 8810 fluorescence intensity (a.u.); for “ATCTTTTTCCCGGTTCCATCAATCCCACGACCACGAGTACCGGAGTCACCTAGTGCAG” it is 8660 fluorescence intensity (a.u.).
Regarding “TATGTGTCTGTTTCCTTGTGTTCTCTGGTATGTGCGAATTCGGAGTCACCTAGTGCAG”, the binding signal is 9270 fluorescence intensity (a.u.).
The figure for “GATGCTTAGTGCCTTCGACTTGCTCGACAATATTCCCCAACGGAGTCACCTAGTGCAG” is 8860 fluorescence intensity (a.u.).
The figure for “TTGACCCTGCCTACTCCTACGTGGCAATCTGGCATCTGCACGGAGTCACCTAGTGCAG” is 8490 fluorescence intensity (a.u.).
In the case of “ATACATATATTCCACGCTACACGTTGTGGGCTTTTTTTTCCGGAGTCACCTAGTGCAG”, the binding signal was 8350 fluorescence intensity (a.u.).
Then “ATCCCCGGCGTGCCCCATCTCCGGCGGCTGCTTCCCCGCCCGGAGTCACCTAGTGCAG”, with 8120 fluorescence intensity (a.u.).
The figure for “ATGTGGCTGACGAGGCTCTTTTGCTTTATTCTGTGGTGTGCGGAGTCACCTAGTGCAG” is 9460 fluorescence intensity (a.u.); for “CAGATGCTGGTCGGGTTCTTGTTTCTTTCACACCGTCGAACGGAGTCACCTAGTGCAG” it is 11400 fluorescence intensity (a.u.); for “TTTATAGGCCATACACATATTTCACTCCACTCCATTCATACGGAGTCACCTAGTGCAG” it is 8520 fluorescence intensity (a.u.).
Then “ACCAATATTTAAAGCACTCATTTTCTGGGTACAACATTATCGGAGTCACCTAGTGCAG”, with 9320 fluorescence intensity (a.u.); and “TATATATATATATATTCATTAACATCAATATTAATGTGGGCGGAGTCACCTAGTGCAG”, with 10100 fluorescence intensity (a.u.); and “GTCTCTCGTCCTGTCATCTTTCCCATCTTCGGTGACATCCCGGAGTCACCTAGTGCAG”, with 8270 fluorescence intensity (a.u.).
In the case of “ATACTCCGACGTCTTACCTGCCGTTTGGGGCACCGACATGCGGAGTCACCTAGTGCAG”, the binding signal was 9030 fluorescence intensity (a.u.).
Then “TTTGGTTGCTTACACGAGAGATACGGTTTGGAAGAGATTTCGGAGTCACCTAGTGCAG”, with 8250 fluorescence intensity (a.u.); and “CAATTCCGTTATTTTTATTTTTCATATTTTCACCGTTTGGCGGAGTCACCTAGTGCAG”, with 8840 fluorescence intensity (a.u.); and “CTAAATTTGTAAACATTGTCTTGATATTTCTTTGTTTCCTCGGAGTCACCTAGTGCAG”, with 8040 fluorescence intensity (a.u.).
Then “CTTATCTTTTTTTTTCTTGAACGAACATTTCATTTCTTATCGGAGTCACCTAGTGCAG”, with 8110 fluorescence intensity (a.u.); and “TCTTCTGTAATTTCTGTCAATACTCCTTCCATGATTTGCTCGGAGTCACCTAGTGCAG”, with 10200 fluorescence intensity (a.u.); and “GCCGCCCGTTTGGACACCTCTACCTACAACCAGCATTATCCGGAGTCACCTAGTGCAG”, with 8500 fluorescence intensity (a.u.).
The figure for “AAACTAGATCCTACGGCGATTTTGACTCCGATTTTATCCGCGGAGTCACCTAGTGCAG” is 8250 fluorescence intensity (a.u.); for “TTTATAAGCGCTAGTGCCTTGCCAAGTCGACACGTGGCTCCGGAGTCACCTAGTGCAG” it is 8280 fluorescence intensity (a.u.); for “GACACCTTGACGCCGTGGAGGAGGGCGGCGTTGACCCAGCCGGAGTCACCTAGTGCAG” it is 12100 fluorescence intensity (a.u.).
Regarding “TTTTGCAAAGCATTCCTCGCGCTTTCAGCTAATTACGCATCGGAGTCACCTAGTGCAG”, the binding signal was 8500 fluorescence intensity (a.u.).
With “CTGGGTTTGGCCTGTTAGTGTGAGTGGGCCTGGGTTATCACGGAGTCACCTAGTGCAG”, the binding signal was 9010 fluorescence intensity (a.u.).
Then “GCCATCCTCTTCTCTCTGCACCTTCCACACCACACACCTCCGGAGTCACCTAGTGCAG”, with 11100 fluorescence intensity (a.u.).
